# Assay results: the supplement of paper PMC12067093, “Discovery and optimisation of a covalent ligand for TRIM25 and its application to targeted protein ubiquitination” (Chemical Science, 2025)
# By UniProt entry, the sequences of proteins in these tests, tags left out. Where a name states a change or a piece, a line headed by the entry shows the natural chain unless it says otherwise.
# UniProt O75381, whole entry, looked up: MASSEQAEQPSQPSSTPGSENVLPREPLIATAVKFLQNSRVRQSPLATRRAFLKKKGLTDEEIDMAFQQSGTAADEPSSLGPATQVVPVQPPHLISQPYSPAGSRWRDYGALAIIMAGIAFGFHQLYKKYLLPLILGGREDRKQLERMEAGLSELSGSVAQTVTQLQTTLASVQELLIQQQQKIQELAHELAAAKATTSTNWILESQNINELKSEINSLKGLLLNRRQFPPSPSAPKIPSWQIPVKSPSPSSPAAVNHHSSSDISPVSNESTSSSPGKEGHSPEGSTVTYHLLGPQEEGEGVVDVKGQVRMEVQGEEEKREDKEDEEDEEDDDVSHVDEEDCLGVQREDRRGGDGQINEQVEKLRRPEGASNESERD
# UniProt P17858: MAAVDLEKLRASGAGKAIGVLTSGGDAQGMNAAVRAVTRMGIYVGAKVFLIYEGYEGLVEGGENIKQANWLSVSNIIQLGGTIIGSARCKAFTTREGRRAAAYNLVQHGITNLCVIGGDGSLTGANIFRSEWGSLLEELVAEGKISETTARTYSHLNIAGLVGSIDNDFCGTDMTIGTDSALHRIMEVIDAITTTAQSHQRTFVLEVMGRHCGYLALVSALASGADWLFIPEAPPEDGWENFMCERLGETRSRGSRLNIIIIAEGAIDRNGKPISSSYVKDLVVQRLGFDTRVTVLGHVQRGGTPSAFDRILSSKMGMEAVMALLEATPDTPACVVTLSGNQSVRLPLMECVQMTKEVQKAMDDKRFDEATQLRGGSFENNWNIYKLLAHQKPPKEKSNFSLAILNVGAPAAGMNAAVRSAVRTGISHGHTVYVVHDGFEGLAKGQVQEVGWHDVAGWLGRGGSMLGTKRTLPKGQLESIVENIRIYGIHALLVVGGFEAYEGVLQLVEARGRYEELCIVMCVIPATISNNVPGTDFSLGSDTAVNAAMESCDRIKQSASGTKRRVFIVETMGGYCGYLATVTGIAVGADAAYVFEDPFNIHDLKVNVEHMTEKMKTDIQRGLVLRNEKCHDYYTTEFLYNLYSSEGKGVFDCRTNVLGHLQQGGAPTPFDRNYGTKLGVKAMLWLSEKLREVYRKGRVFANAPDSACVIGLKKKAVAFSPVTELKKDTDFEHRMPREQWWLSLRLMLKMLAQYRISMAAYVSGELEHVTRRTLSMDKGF
# UniProt Q6ZS72: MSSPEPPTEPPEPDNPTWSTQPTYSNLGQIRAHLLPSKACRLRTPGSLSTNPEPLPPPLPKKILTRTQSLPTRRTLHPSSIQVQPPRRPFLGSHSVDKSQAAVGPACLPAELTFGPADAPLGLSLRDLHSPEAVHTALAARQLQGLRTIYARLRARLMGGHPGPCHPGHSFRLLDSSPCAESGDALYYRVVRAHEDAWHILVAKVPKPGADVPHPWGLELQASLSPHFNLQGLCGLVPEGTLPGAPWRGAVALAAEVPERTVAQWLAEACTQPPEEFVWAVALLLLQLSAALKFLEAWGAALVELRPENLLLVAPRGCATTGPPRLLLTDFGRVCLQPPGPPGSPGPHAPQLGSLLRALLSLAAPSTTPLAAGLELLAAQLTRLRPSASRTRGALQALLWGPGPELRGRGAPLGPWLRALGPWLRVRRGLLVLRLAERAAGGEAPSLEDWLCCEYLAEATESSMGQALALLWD
# UniProt O15067: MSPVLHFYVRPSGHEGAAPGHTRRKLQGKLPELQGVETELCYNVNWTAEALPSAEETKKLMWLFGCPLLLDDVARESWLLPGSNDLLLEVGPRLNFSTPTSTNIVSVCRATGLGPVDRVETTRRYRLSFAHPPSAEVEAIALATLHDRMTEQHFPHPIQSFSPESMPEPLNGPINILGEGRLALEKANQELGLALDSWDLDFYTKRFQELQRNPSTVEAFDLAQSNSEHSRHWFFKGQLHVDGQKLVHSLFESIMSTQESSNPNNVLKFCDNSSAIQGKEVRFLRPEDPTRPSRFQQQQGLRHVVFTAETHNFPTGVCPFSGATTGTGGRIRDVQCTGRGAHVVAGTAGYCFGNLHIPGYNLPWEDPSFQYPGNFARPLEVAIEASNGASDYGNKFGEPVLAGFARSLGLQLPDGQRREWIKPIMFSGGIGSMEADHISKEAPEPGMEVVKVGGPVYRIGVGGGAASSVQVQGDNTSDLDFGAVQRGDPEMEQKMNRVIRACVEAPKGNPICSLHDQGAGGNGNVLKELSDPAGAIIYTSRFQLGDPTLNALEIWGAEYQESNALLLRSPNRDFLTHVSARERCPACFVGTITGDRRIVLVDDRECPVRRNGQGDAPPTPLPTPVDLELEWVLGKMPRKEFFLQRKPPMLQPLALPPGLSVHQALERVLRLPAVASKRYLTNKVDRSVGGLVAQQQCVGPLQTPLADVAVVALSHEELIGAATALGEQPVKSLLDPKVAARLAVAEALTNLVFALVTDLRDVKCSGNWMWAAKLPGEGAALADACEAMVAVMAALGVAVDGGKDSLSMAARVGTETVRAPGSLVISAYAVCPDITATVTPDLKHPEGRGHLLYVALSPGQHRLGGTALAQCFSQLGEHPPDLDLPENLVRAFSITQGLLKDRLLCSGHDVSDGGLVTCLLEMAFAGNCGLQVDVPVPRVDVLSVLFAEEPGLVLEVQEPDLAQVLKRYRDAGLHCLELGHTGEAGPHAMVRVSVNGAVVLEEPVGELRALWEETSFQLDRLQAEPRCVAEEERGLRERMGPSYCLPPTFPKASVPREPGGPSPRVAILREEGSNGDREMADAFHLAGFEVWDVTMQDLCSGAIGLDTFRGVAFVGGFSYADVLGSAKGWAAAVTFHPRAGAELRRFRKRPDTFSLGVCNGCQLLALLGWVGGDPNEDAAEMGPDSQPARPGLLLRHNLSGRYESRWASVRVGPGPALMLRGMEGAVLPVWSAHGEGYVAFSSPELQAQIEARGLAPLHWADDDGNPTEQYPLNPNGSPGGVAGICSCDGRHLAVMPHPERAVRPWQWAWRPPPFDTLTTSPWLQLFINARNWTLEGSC
# UniProt O60346: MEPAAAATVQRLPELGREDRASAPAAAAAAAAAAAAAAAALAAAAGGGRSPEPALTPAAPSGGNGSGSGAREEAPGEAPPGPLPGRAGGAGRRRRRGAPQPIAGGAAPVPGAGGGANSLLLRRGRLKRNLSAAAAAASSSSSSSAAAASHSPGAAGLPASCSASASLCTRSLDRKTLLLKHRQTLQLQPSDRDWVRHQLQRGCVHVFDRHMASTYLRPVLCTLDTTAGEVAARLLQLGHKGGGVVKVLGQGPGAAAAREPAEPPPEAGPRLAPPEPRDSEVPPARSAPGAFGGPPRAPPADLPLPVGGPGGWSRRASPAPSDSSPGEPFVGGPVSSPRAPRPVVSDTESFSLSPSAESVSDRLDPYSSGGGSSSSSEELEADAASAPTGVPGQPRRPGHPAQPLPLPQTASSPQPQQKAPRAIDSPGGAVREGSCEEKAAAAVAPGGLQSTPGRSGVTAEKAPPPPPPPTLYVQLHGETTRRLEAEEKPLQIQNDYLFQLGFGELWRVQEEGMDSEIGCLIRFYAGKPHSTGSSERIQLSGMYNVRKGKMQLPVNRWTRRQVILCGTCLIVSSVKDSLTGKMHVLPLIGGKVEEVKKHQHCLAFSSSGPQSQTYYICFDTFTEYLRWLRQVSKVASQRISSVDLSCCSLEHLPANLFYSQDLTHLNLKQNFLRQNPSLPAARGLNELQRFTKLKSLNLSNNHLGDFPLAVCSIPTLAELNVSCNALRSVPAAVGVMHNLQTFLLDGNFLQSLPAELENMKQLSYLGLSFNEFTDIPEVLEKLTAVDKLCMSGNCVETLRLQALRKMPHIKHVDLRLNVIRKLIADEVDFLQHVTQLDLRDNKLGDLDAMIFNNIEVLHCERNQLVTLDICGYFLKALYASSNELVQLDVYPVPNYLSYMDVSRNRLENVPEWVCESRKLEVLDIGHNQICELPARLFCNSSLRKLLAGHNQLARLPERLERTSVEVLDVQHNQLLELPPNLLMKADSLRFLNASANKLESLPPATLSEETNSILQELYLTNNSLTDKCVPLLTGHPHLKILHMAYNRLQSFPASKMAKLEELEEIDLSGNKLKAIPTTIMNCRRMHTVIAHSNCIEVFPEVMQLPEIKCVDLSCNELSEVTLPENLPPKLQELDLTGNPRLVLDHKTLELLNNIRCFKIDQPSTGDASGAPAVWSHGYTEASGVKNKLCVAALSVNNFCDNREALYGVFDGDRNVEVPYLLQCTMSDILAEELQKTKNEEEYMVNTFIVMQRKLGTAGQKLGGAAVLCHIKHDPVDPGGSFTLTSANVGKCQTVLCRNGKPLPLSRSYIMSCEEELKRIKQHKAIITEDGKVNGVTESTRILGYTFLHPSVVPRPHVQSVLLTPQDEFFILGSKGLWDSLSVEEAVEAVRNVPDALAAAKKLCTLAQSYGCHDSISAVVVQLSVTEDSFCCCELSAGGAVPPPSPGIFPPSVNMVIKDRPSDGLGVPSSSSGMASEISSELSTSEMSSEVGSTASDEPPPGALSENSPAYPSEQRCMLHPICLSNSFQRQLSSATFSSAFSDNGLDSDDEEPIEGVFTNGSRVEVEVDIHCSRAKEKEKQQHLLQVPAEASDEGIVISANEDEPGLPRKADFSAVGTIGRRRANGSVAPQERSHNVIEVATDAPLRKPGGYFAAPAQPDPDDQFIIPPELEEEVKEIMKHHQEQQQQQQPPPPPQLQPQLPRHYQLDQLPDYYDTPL
# UniProt P12955: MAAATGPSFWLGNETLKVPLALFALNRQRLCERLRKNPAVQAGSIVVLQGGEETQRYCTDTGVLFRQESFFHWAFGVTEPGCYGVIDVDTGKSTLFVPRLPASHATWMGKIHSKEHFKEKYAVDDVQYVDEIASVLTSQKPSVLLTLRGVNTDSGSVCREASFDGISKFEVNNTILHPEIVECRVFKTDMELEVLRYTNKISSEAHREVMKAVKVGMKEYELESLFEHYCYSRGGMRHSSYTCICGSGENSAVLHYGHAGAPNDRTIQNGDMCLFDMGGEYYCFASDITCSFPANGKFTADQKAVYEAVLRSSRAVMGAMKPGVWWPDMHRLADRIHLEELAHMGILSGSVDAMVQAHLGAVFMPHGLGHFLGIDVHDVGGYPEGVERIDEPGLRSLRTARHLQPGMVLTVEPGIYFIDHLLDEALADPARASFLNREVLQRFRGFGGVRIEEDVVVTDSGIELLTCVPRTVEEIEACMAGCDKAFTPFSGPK
# UniProt Q9UIL8: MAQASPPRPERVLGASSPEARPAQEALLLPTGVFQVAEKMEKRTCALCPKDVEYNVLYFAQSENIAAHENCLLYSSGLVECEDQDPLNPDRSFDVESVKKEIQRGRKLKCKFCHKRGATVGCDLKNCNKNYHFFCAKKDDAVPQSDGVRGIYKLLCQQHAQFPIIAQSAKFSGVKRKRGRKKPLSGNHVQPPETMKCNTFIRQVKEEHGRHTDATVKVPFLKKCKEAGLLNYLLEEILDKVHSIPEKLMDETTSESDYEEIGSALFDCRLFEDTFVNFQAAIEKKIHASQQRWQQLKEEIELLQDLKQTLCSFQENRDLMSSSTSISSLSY
# UniProt Q7RTV0, whole entry, looked up: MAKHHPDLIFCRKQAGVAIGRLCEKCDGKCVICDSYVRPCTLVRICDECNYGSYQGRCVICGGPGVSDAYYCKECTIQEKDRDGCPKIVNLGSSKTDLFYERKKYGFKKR
# UniProt P52209: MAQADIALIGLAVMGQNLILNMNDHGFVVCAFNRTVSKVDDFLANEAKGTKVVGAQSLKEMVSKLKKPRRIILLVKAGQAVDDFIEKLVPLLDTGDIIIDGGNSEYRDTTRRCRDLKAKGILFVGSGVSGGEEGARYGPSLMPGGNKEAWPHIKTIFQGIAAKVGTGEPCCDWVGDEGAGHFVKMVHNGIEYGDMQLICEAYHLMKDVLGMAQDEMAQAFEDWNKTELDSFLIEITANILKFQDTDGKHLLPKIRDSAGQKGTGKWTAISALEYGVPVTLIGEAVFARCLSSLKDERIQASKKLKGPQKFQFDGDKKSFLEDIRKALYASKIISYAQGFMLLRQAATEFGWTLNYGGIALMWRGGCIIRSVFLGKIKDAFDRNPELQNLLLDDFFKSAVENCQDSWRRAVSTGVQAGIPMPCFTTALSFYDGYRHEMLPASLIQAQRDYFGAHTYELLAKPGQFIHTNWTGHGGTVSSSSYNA
# UniProt Q8IWS0: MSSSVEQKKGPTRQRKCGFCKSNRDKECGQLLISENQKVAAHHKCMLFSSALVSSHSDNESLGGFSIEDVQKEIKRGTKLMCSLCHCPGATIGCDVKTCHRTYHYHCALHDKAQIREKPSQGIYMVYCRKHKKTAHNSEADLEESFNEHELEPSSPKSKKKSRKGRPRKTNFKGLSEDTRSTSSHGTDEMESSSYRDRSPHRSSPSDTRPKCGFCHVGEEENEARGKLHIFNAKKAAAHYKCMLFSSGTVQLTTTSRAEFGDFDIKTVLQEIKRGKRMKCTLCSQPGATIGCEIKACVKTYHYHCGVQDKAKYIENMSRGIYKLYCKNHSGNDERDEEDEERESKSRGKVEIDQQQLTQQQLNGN
# This is one part of the list.
# Compound: CC1Cc2ccccc2N1C(=O)C1CCCN(C1)C(=O)CCl (mixture of isomers) [TRIM25 ligand 11 (diastereomer mixture)]
# Test: probe-labelled cysteine peptide fold change vs DMSO (competition) (log2 fold change); higher = less target engagement (more negative = stronger competition)
# Settings: 10 µM; THP-1; incubation time: 4 h
# 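Also: competitive chemoproteomic profiling in live THP-1 cells with an iodoacetamide desthiobiotin (IA-DTB) probe, comparing probe-labelled peptide intensities in compound-treated cells against DMSO-treated controls.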
row,Target,probe-labelled cysteine peptide fold change
1,PEX14_O75381_342_REDKEDEEDEEDDDVSHVDEEDCLGVQR (UniProt O75381),0.253
2,PFKL_P17858_630_CHDYYTTEFLYNLYSSEGK (UniProt P17858),0.000602
3,PEAK3_Q6ZS72_107_SQAAVGPACLPAELTFGPADAPLGLSLR (UniProt Q6ZS72),-0.178
4,PFAS_O15067_270_FCDNSSAIQGK (UniProt O15067),-0.0455
5,PHLPP1_O60346_1028_CVPLLTGHPHLK (UniProt O60346),0.0676
6,PEPD_P12955_482_TVEEIEACMAGCDK (UniProt P12955),0.0938
7,PHIP_Q8WWQ0_28_FLEDGPCQQAAQVLIR (UniProt Q8WWQ0),-0.0249
8,PHF11_Q9UIL8_135_NYHFFCAK (UniProt Q9UIL8),-0.0148
9,PELO_Q9BRX2_204_CILVASPGFVR (UniProt Q9BRX2),0.0971
10,PHKA1_P46020_91_GLLHCMIR (UniProt P46020),0.166
11,PHIP_Q8WWQ0_245_GHAAEISDMAVNYENTMIAAGSCDK (UniProt Q8WWQ0),0.0498
12,PHF14_O94880_518_NYLALQSYCK (UniProt O94880),-0.0591
13,PGM3_O95394_200_QASCSGDEYR (UniProt O95394),-0.00374
14,PGM3_O95394_168_LSQSVIDGVTVLGGQFHDYGLLTTPQLHYMVYCR (UniProt O95394),-0.00373
15,PIGA_P37287_348_VGGIPEVLPENLIILCEPSVK (UniProt P37287),-0.0812
16,PHF5A_Q7RTV0_11_HHPDLIFCR (UniProt Q7RTV0),0.0557
17,PEX19_P40855_229_ICEQFEAETPTDSETTQK (UniProt P40855),0.0705
18,PHF1_O43189_327_CLFGLHAR (UniProt O43189),-0.13
19,PHF5A_Q7RTV0_40_CVICDSYVRPCTLVR (UniProt Q7RTV0),0.0445
20,PI4KA_P42356_1774_VQPGCYLPSNPEAIVLDIDYK (UniProt P42356),-0.166
21,PHYH_O14832_280+287_AISCHFASADCHYIDVK (UniProt O14832),-0.0015

# Same assay, conditions: 50 µM; THP-1; incubation time: 4 h
row,Target,probe-labelled cysteine peptide fold change
1,PELP1_Q8IZL8_191_DISMNHLPGLLTSLLGLRPECEQSALEGMK (UniProt Q8IZL8),-0.128
2,PGD_P52209_171_VGTGEPCCDWVGDEGAGHFVK (UniProt P52209),-0.00791
3,PHF14_O94880_495_EGLLSEAAAEEDIADPFFAYCK (UniProt O94880),0.186
4,PHKA1_P46020_697_FQAAVQTTCDLMSLVTK (UniProt P46020),-0.109
5,PIBF1_Q8WXW3_199_EICELQVK (UniProt Q8WXW3),-0.118
6,PHIP_Q8WWQ0_79_HLAPDHLLQICHR (UniProt Q8WWQ0),0.116
7,PICK1_Q9NRD5_145_AILCNDGLVK (UniProt Q9NRD5),-0.00768
8,PFAS_O15067_1027_CVAEEER (UniProt O15067),-0.123
9,PHF6_Q8IWS0_212_CGFCHVGEEENEAR (UniProt Q8IWS0),0.162
10,PGK1_P00558_379+380_GCITIIGGGDTATCCAK (UniProt P00558),0.198
11,PGD_P52209_289_CLSSLK (UniProt P52209),0.112
12,PECAM1_P16284_386_SDSGTYICTAGIDK (UniProt P16284),0.107
13,PHF6_Q8IWS0_85_LMCSLCHCPGATIGCDVK (UniProt Q8IWS0),0.256
14,PHF14_O94880_754_LHYHLGCLDPPLTR (UniProt O94880),-0.0191
15,PDXP_Q96GD0_171_EACAHLRDPECLLVATDRDPWHPLSDGSR (UniProt Q96GD0),-0.0102
16,PHIP_Q8WWQ0_1692_KLQYAKPEDLEQNNVHPIRDEVLPSSTCNFLSETNNVK (UniProt Q8WWQ0),-0.102
17,PEX14_O75381_342_REDKEDEEDEEDDDVSHVDEEDCLGVQR (UniProt O75381),-0.0283
18,PFKL_P17858_630_CHDYYTTEFLYNLYSSEGK (UniProt P17858),-0.0394
19,PEAK3_Q6ZS72_107_SQAAVGPACLPAELTFGPADAPLGLSLR (UniProt Q6ZS72),-0.357
20,PFAS_O15067_270_FCDNSSAIQGK (UniProt O15067),-0.277
21,PHLPP1_O60346_1028_CVPLLTGHPHLK (UniProt O60346),0.303
22,PEPD_P12955_482_TVEEIEACMAGCDK (UniProt P12955),-0.233
